# Assay results published in the supplement of paper PMC8728848.
# The list shows a part of the results.
# B1: MXA PilAct-eGFP (Myxococcus xanthus), Q59589 (protein)
# chain: MRVSRFNPRNRGFTLIELMIVVAIIGILAAIAIPNFIKFQARSKQSEAKTNLKALYTAQKSFFSEKDRYSDFANEIGFAPERGNRYGYRVSAAAGDCEVRNAADLPVPAAGVPCISNDSFRFGANSAIDDPTPVVARFVPQGAAGWNTTLGVQPTIADCPNCNFFAGARGNADNEATFDDWVIAGFEGSGQVGPCSEAGNVASGTPYNTRNDVACDGAAQ
# Assays:
# Assay in all cases: glycan array binding signal (z-score within array); higher = stronger binding
# Details in all cases: glycan notation: IUPAC condensed, linker removed
# [1] = biological target: Neu5Ac(a2-3)GalNAc(b1-4)GlcNAc
# Method in brief: (§1)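 From the Consortium for Functional Glycomics database, 3228 arrays were curated, keeping only those whose protein sequence was available. Binding is given as a within-array Z-score averaged across arrays sharing a protein sequence and across linkers. Negative Z-scores can be read as non-binding.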
# [2] = biological target: Neu5Ac(a2-3)[GalNAc(b1-4)]Gal(b1-4)Glc
# Method in brief: as §1
# [3] = biological target: Neu5Ac(a2-3)[GalNAc(b1-4)]Gal(b1-4)GlcNAc
# Method in brief: as §1
# [4] = biological target: Neu5Ac(a2-3)[GalNAc(b1-4)]Gal(b1-4)GlcNAc(b1-3)GalNAc
# Method in brief: as §1
# [5] = biological target: Neu5Ac(a2-3)[Neu5Ac(a2-6)]GalNAc
# Method in brief: as §1
# Neu5Ac(a2-6)Gal = biological target: Neu5Ac(a2-6)Gal
# Method in brief: as §1
# [6] = biological target: Neu5Ac(a2-6)Gal(b1-3)GlcNAc(b1-3)[Gal(b1-4)GlcNAc(b1-6)]Gal(b1-4)Glc
# Method in brief: as §1
# Neu5Ac(a2-6)Gal(b1-4)Glc = biological target: Neu5Ac(a2-6)Gal(b1-4)Glc
# Method in brief: as §1
# [7] = biological target: Neu5Ac(a2-6)Gal(b1-4)GlcNAc
# Method in brief: as §1
# [8] = biological target: Neu5Ac(a2-6)Gal(b1-4)GlcNAc(b1-2)Man
# Method in brief: as §1
# [9] = biological target: Neu5Ac(a2-6)Gal(b1-4)GlcNAc(b1-2)Man(a1-3)Man(b1-4)GlcNAc(b1-4)GlcNAc
# Method in brief: as §1
# [10] = biological target: Neu5Ac(a2-6)Gal(b1-4)GlcNAc(b1-2)Man(a1-3)[Gal(b1-4)GlcNAc(b1-2)Man(a1-6)]Man(b1-4)GlcNAc(b1-4)GlcNAc
# Method in brief: as §1
# [11] = biological target: Neu5Ac(a2-6)Gal(b1-4)GlcNAc(b1-2)Man(a1-3)[GlcNAc(b1-2)Man(a1-6)]Man(b1-4)GlcNAc(b1-4)GlcNAc
# Method in brief: as §1
# [12] = biological target: Neu5Ac(a2-6)Gal(b1-4)GlcNAc(b1-2)Man(a1-3)[GlcNAc(b1-4)][Neu5Ac(a2-6)Gal(b1-4)GlcNAc(b1-2)Man(a1-6)]Man(b1-4)GlcNAc(b1-4)GlcNAc
# Method in brief: as §1
# [13] = biological target: Neu5Ac(a2-6)Gal(b1-4)GlcNAc(b1-2)Man(a1-3)[Man(a1-6)]Man(b1-4)GlcNAc(b1-4)GlcNAc
# Method in brief: as §1
# [14] = biological target: Neu5Ac(a2-6)Gal(b1-4)GlcNAc(b1-2)Man(a1-3)[Neu5Ac(a2-3)Gal(b1-4)GlcNAc(b1-2)Man(a1-6)]Man(b1-4)GlcNAc(b1-4)GlcNAc
# Method in brief: as §1
# [15] = biological target: Neu5Ac(a2-6)Gal(b1-4)GlcNAc(b1-2)Man(a1-3)[Neu5Ac(a2-6)Gal(b1-4)GlcNAc(b1-2)Man(a1-6)]Man(b1-4)GlcNAc(b1-4)GlcNAc
# Method in brief: as §1
# [16] = biological target: Neu5Ac(a2-6)Gal(b1-4)GlcNAc(b1-2)Man(a1-3)[Neu5Ac(a2-6)Gal(b1-4)GlcNAc(b1-2)Man(a1-6)]Man(b1-4)GlcNAc(b1-4)[Fuc(a1-6)]GlcNAc
# Method in brief: as §1
# [17] = biological target: Neu5Ac(a2-6)Gal(b1-4)GlcNAc(b1-2)Man(a1-6)Man(b1-4)GlcNAc(b1-4)GlcNAc
# Method in brief: as §1
# [18] = biological target: Neu5Ac(a2-6)Gal(b1-4)GlcNAc(b1-2)Man(a1-6)[Gal(b1-4)GlcNAc(b1-2)Man(a1-3)]Man(b1-4)GlcNAc(b1-4)GlcNAc
# Method in brief: as §1
# [19] = biological target: Neu5Ac(a2-6)Gal(b1-4)GlcNAc(b1-2)Man(a1-6)[GlcNAc(b1-2)Man(a1-3)]Man(b1-4)GlcNAc(b1-4)GlcNAc
# Method in brief: as §1
# [20] = biological target: Neu5Ac(a2-6)Gal(b1-4)GlcNAc(b1-2)Man(a1-6)[Man(a1-3)]Man(b1-4)GlcNAc(b1-4)GlcNAc
# Method in brief: as §1
# [21] = biological target: Neu5Ac(a2-6)Gal(b1-4)GlcNAc(b1-2)[Neu5Ac(a2-6)Gal(b1-4)GlcNAc(b1-4)]Man(a1-3)[GlcNAc(b1-4)][Neu5Ac(a2-6)Gal(b1-4)GlcNAc(b1-2)[Neu5Ac(a2-6)Gal(b1-4)GlcNAc(b1-6)]Man(a1-6)]Man(b1-4)GlcNAc(b1-4)GlcNAc
# Method in brief: as §1
# [22] = biological target: Neu5Ac(a2-6)Gal(b1-4)GlcNAc(b1-2)[Neu5Ac(a2-6)Gal(b1-4)GlcNAc(b1-4)]Man(a1-3)[GlcNAc(b1-4)][Neu5Ac(a2-6)Gal(b1-4)GlcNAc(b1-4)Man(a1-6)]Man(b1-4)GlcNAc(b1-4)GlcNAc
# Method in brief: as §1
# [23] = biological target: Neu5Ac(a2-6)Gal(b1-4)GlcNAc(b1-2)[Neu5Ac(a2-6)Gal(b1-4)GlcNAc(b1-6)]Man(a1-6)[Neu5Ac(a2-6)Gal(b1-4)GlcNAc(b1-2)Man(a1-3)][GlcNAc(b1-4)]Man(b1-4)GlcNAc(b1-4)GlcNAc
# Method in brief: as §1
# [24] = biological target: Neu5Ac(a2-6)Gal(b1-4)GlcNAc(b1-3)Gal(b1-3)GlcNAc
# Method in brief: as §1
# [25] = biological target: Neu5Ac(a2-6)Gal(b1-4)GlcNAc(b1-3)Gal(b1-4)GlcNAc
# Method in brief: as §1
# [26] = biological target: Neu5Ac(a2-6)Gal(b1-4)GlcNAc(b1-3)Gal(b1-4)GlcNAc(b1-2)Man(a1-3)[Neu5Ac(a2-6)Gal(b1-4)GlcNAc(b1-3)Gal(b1-4)GlcNAc(b1-2)Man(a1-6)]GalNAc
# Method in brief: as §1
# [27] = biological target: Neu5Ac(a2-6)Gal(b1-4)GlcNAc(b1-3)Gal(b1-4)GlcNAc(b1-3)Gal(b1-4)GlcNAc
# Method in brief: as §1
# [28] = biological target: Neu5Ac(a2-6)Gal(b1-4)GlcNAc(b1-3)Gal(b1-4)GlcNAc(b1-3)Gal(b1-4)GlcNAc(b1-2)Man(a1-3)[Neu5Ac(a2-6)Gal(b1-4)GlcNAc(b1-3)Gal(b1-4)GlcNAc(b1-3)Gal(b1-4)GlcNAc(b1-2)Man(a1-6)]GalNAc
# Method in brief: as §1
# [29] = biological target: Neu5Ac(a2-6)Gal(b1-4)GlcNAc(b1-3)Gal(b1-4)GlcNAc(b1-3)GalNAc
# Method in brief: as §1
# [30] = biological target: Neu5Ac(a2-6)Gal(b1-4)GlcNAc(b1-3)Gal(b1-4)GlcNAc(b1-3)[Neu5Ac(a2-6)Gal(b1-4)GlcNAc(b1-3)Gal(b1-4)GlcNAc(b1-6)]GalNAc
# Method in brief: as §1
# [31] = biological target: Neu5Ac(a2-6)Gal(b1-4)GlcNAc(b1-3)Gal(b1-4)GlcNAc(b1-6)[Gal(b1-3)]GalNAc
# Method in brief: as §1
# [32] = biological target: Neu5Ac(a2-6)Gal(b1-4)GlcNAc(b1-3)Gal(b1-4)[Fuc(a1-3)]GlcNAc(b1-3)Gal(b1-4)[Fuc(a1-3)]GlcNAc
# Method in brief: as §1
# [33] = biological target: Neu5Ac(a2-6)Gal(b1-4)GlcNAc(b1-3)GalNAc
# Method in brief: as §1
# [34] = biological target: Neu5Ac(a2-6)Gal(b1-4)GlcNAc(b1-3)[Neu5Ac(a2-6)Gal(b1-4)GlcNAc(b1-6)]GalNAc
# Method in brief: as §1
# [35] = biological target: Neu5Ac(a2-6)Gal(b1-4)GlcNAc(b1-6)GalNAc
# Method in brief: as §1
# [36] = biological target: Neu5Ac(a2-6)Gal(b1-4)GlcNAc(b1-6)[Gal(b1-3)GlcNAc(b1-3)]Gal(b1-4)Glc
# Method in brief: as §1
binder,measurement,setting,value
B1,glycan array binding signal (z-score),[1],-0.67
same,glycan array binding signal (z-score),[2],0.178
same,glycan array binding signal (z-score),[3],-0.027
same,glycan array binding signal (z-score),[4],0.398
same,glycan array binding signal (z-score),[5],-0.688
same,glycan array binding signal (z-score),Neu5Ac(a2-6)Gal,0.752
same,glycan array binding signal (z-score),[6],1.26
same,glycan array binding signal (z-score),Neu5Ac(a2-6)Gal(b1-4)Glc,0.005
same,glycan array binding signal (z-score),[7],0.132
same,glycan array binding signal (z-score),[8],-0.318
same,glycan array binding signal (z-score),[9],-0.569
same,glycan array binding signal (z-score),[10],0.401
same,glycan array binding signal (z-score),[11],-0.515
same,glycan array binding signal (z-score),[12],-1.03
same,glycan array binding signal (z-score),[13],3.09
same,glycan array binding signal (z-score),[14],-0.606
same,glycan array binding signal (z-score),[15],0.119
same,glycan array binding signal (z-score),[16],0.932
same,glycan array binding signal (z-score),[17],2.91
same,glycan array binding signal (z-score),[18],0.444
same,glycan array binding signal (z-score),[19],-0.384
same,glycan array binding signal (z-score),[20],1.24
same,glycan array binding signal (z-score),[21],-0.369
same,glycan array binding signal (z-score),[22],-0.544
same,glycan array binding signal (z-score),[23],0.894
same,glycan array binding signal (z-score),[24],1.4
same,glycan array binding signal (z-score),[25],-0.602
same,glycan array binding signal (z-score),[26],-0.98
same,glycan array binding signal (z-score),[27],-0.139
same,glycan array binding signal (z-score),[28],-0.044
same,glycan array binding signal (z-score),[29],-0.204
same,glycan array binding signal (z-score),[30],-0.119
same,glycan array binding signal (z-score),[31],-0.151
same,glycan array binding signal (z-score),[32],0.282
same,glycan array binding signal (z-score),[33],-0.438
same,glycan array binding signal (z-score),[34],0.158
same,glycan array binding signal (z-score),[35],-0.751
same,glycan array binding signal (z-score),[36],0.909

# No new results follow: entries from further up.
binder,measurement,setting,value
B1,glycan array binding signal (z-score),[13],3.09
same,glycan array binding signal (z-score),[14],-0.606
same,glycan array binding signal (z-score),[15],0.119
